Taken from: PubChem BioAssay AID743121 (NCATS, 2013)
This is an unselected part of about 26,000 reagents. Of all reagents, 167 (0.63%) were called active. 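Calls are per gene from RSA p-values that are not deposited; an individual active-marked siRNA can sensitise only weakly.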 Unmarked entries are inactive. The numbers tell different reagents against one gene apart. Not all columns of the deposit are shown.

Aim: 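Knock-downs that sensitise breast cancer cells to camptothecin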 (primary screen)
Cell system: MDA-MB-231 cells, a human breast cancer line
Reagent: single siRNA against human genes, 20 nM siRNA (0.8 pmol per well)
Time to read-out: 120 h (drug added 48 h after transfection, read 72 h later)
Challenge: camptothecin 20 nM (about EC30) for 72 h; vehicle 0.1% DMSO in parallel plates
Detection: 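Cell viability by ATP luminescence (CellTiter-Glo) as % of non-targeting siRNA wells, and the log2 ratio of viability without drug over viability with camptothecin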
Reading the numbers: log2 vehicle/camptothecin viability: higher = stronger sensitisation to camptothecin
Call rule: 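Each gene scored by redundant siRNA activity (RSA) over its individual siRNA ratios; a gene is called active at p < 0.001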

log2 vehicle/camptothecin viability, by gene knocked down and reagent
JOSD2 (Josephin domain containing 2): #1 0.0383; #2 -0.19; #3 0.372
BPIFB1 (BPI fold containing family B member 1): #1 -0.329; #2 0.223; #3 -0.54; #4 -0.173
RAD51C (RAD51 paralog C): #1 0.531; #2 0.0202; #3 -0.0706; #4 0.0198
CRKL (CRK like proto-oncogene, adaptor protein): #1 -0.585; #2 -0.179; #3 -0.489
MMUT (methylmalonyl-CoA mutase): #1 -0.401; #2 -0.0328; #3 0.663; #4 0.262
BMF (Bcl2 modifying factor): #1 -0.11; #2 -0.222; #3 -0.162; #4 -0.0541
KCNC1 (potassium voltage-gated channel subfamily C member 1): #1 -0.0185; #2 -0.108; #3 -0.421; #4 0.441
PAK5 (p21 (RAC1) activated kinase 5): #1 -0.0355; #2 -0.669; #3 -0.158; #4 0.308
MAP3K3 (mitogen-activated protein kinase kinase kinase 3): #1 -0.22; #2 1.82; #3 -0.768; #4 0.0574
OR10A2 (olfactory receptor family 10 subfamily A member 2): #1 -0.405

Reprinted from the entries so far for reference:
log2 vehicle/camptothecin viability, by gene knocked down and reagent
CRKL (CRK like proto-oncogene, adaptor protein): #3 -0.489
MMUT (methylmalonyl-CoA mutase): #1 -0.401; #2 -0.0328; #3 0.663; #4 0.262
BMF (Bcl2 modifying factor): #1 -0.11

The results go on:
log2 vehicle/camptothecin viability, by gene knocked down and reagent
PSMB4 (proteasome 20S subunit beta 4): #1 -0.881; #2 -0.583; #3 0.547; #4 -0.0717
FKBP8 (FKBP prolyl isomerase 8): #1 -0.342; #2 -0.282; #3 -0.0289; #4 -0.243
FBXL5 (F-box and leucine rich repeat protein 5): #1 -0.2; #2 -0.239; #3 -0.0128
ABCC3 (ATP binding cassette subfamily C member 3): #1 1.07; #2 0.0514; #3 -0.279
USP42 (ubiquitin specific peptidase 42): #1 -0.35; #2 -0.0672; #3 -0.162; #4 -0.0485
TSG101 (tumor susceptibility 101): #1 0.167 (active); #2 0.532 (active); #3 1.43 (active); #4 1.2 (active)
SORCS2 (sortilin related VPS10 domain containing receptor 2): #1 -0.349; #2 -0.312; #3 -0.263
KIF24 (kinesin family member 24): #1 -0.337; #2 -0.283; #3 -0.486
DIO1 (iodothyronine deiodinase 1): #1 -0.234; #2 0.328; #3 0.133; #4 0.196
ADORA1 (adenosine A1 receptor): #1 -0.354; #2 0.936; #3 -0.0257; #4 -0.338
EEF1E1 (eukaryotic translation elongation factor 1 epsilon 1): #1 -0.00179; #2 0.0422; #3 -0.124; #4 -0.427
CLDN3 (claudin 3): #1 -0.271; #2 -0.442; #3 -0.0202; #4 -0.285
DCXR (dicarbonyl and L-xylulose reductase): #1 0.695; #2 0.519; #3 0.233
TPCN1 (two pore segment channel 1): #1 0.305; #2 -0.203; #3 -0.283; #4 -0.0299
GP6 (glycoprotein VI platelet): #1 -0.199; #2 0.0367; #3 -0.191; #4 0.231
